According to patent US20160221932A1, “Methods and Uses of Melatonin Ligands” (priority 2013, published 2016):
Some results were stated once for a whole list of compounds, not compound by compound.

Test system: SNI rats
Assay: spared nerve injury (SNI) model, dynamic plantar aesthesiometer
Assay type: in vivo, rat
Conditions: 20 and 40 mg/Kg s.c.
Description: Spared nerve injury (SNI) of the sciatic nerve and measurement of allodynia with the dynamic plantar aesthesiometer. SNI was performed according to the method of Decosterd and Woolf (2000). Rats were anaesthetized with sodium pentobarbital (50 mg/kg i.p.). The sciatic nerve was exposed at mid-thigh level […] to the trifurcation and freed of connective tissue; the three peripheral branches (sural, common peroneal, and tibial nerves) of the sciatic nerve were exposed without stretching nerve structures. Both tibial and common peroneal nerves were ligated and transected together. The sham procedure consisted of the same surgery without ligation and transection of the nerves. Fourteen days after SNI, mechanical allodynia was measured using the dynamic plantar aesthesiometer (Ugo Basile, Varese, Italy). […] The force inducing paw withdrawal was recorded to the nearest 0.1 g. Nociceptive responses for mechanical sensitivity (mechanical withdrawal threshold) were measured in grams before and after vehicle or drug administration by an experimenter blind to the treatments. […] Nociceptive responses for mechanical sensitivity were expressed as mean±SEM (g). […]
Statistical Analysis: Data analysis was done using SigmaPlot 12 (Systat Software, Inc.). […] All data are expressed as mean±Standard Error of the Mean (SEM). […]

## CC(=O)NCCN(c1ccc(F)cc1)c1cccc(Br)c1 [5p, N-{2-[(3-Bromophenyl)-4-fluorophenylamino]ethyl}acetamide]
  duration of effect after administration: up to 7 h
